The values that follow come from doi:10.1101/2025.11.18.689088.

This assay addresses T1, BRUTUS (BTS) (Arabidopsis thaliana) (UniProt Q8LPQ5).
T1 sequence: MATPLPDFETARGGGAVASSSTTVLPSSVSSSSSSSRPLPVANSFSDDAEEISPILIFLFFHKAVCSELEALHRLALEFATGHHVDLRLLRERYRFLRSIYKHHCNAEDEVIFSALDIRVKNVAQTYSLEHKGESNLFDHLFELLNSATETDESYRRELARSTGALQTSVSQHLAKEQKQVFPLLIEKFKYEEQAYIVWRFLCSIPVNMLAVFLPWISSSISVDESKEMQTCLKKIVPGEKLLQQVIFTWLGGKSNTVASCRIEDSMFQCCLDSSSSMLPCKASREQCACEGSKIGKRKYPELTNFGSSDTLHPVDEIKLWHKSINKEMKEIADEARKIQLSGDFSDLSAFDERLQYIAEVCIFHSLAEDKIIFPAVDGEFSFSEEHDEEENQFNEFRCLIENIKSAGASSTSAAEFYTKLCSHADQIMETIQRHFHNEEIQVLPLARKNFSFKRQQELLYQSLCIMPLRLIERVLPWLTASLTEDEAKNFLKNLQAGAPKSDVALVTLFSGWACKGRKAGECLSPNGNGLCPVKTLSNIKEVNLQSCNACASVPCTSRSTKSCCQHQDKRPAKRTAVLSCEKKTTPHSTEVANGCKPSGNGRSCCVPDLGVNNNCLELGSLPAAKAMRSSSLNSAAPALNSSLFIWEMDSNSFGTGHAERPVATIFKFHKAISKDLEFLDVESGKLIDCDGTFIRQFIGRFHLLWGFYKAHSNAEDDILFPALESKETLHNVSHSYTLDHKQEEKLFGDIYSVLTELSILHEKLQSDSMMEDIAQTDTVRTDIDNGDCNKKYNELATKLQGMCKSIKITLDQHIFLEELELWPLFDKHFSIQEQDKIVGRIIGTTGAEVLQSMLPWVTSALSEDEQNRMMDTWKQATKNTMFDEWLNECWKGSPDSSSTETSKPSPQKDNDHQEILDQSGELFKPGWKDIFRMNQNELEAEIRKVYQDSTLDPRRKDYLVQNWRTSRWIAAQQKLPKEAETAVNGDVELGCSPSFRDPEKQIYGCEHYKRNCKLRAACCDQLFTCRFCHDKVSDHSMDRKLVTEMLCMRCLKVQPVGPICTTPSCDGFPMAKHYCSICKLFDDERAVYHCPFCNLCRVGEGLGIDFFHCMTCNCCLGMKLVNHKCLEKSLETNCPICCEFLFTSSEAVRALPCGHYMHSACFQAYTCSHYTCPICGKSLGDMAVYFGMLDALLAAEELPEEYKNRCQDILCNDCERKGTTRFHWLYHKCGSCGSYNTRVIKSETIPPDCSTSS
Description: two-hybrid.

These are yes or no findings as the source states them, for the method shown. A result given as binding can be weak or reduced; the word gives no strength.

Consider “C-terminal part of bHLH104 (bHLH104-C) (Arabidopsis thaliana) (domain or fragment)”, for which the binding result is given as “binds”.
